Reference: paper PMC4009770
For some assays here: Weaker means in comparison with the reference protein, sequence or condition of that experiment. For some assays here: Construct, isoform or probe ends are uncertain for at least one entry. For some assays here: At least one verdict rests on a figure or table, not on a statement of the authors.

The chains behind the UniProt entries cited, without tags or fusion partners.
UniProt Q9HC16, whole entry E254R: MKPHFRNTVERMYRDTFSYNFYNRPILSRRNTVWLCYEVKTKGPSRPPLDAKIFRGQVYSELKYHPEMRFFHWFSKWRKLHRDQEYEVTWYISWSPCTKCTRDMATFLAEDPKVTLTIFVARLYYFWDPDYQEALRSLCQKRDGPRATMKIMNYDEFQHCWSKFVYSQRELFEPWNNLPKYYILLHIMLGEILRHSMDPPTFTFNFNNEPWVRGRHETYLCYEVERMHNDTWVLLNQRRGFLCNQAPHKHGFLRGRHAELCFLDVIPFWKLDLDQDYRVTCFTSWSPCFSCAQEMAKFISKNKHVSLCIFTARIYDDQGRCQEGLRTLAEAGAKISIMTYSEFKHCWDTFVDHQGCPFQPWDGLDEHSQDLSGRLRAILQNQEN
UniProt Q9HC16, whole entry R213E: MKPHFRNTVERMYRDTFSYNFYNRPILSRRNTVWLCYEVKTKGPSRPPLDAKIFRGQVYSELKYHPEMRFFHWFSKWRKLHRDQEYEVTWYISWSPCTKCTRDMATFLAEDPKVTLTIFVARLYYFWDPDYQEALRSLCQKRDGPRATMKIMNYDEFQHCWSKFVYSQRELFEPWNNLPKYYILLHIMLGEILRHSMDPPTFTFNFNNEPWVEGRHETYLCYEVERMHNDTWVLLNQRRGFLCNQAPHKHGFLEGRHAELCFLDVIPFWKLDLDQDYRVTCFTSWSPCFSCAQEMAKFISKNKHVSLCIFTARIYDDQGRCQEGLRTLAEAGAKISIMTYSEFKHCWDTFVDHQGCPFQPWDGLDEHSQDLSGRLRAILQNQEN
UniProt Q9HC16, whole entry R320E: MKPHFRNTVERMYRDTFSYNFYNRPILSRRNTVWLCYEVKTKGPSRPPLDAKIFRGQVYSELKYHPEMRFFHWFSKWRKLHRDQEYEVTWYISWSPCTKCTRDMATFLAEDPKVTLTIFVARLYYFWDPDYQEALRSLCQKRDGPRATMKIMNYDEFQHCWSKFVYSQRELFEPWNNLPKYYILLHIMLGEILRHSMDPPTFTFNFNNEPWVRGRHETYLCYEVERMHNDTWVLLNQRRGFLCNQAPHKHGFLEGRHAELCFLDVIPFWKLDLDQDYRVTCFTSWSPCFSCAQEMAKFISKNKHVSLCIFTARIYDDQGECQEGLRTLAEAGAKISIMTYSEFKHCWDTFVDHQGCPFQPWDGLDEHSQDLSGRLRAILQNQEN
UniProt Q9HC16, whole entry R374E: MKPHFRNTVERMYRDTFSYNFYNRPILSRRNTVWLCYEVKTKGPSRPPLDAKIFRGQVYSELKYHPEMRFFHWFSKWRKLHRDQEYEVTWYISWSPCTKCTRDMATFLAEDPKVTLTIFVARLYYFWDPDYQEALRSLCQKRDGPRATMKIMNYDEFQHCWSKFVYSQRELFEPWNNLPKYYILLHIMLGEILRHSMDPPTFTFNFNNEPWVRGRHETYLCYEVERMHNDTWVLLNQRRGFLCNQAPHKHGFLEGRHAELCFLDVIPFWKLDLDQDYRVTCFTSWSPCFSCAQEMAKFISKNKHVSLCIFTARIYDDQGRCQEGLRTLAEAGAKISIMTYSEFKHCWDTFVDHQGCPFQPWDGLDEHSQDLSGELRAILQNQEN
UniProt Q9HC16, whole entry R376E: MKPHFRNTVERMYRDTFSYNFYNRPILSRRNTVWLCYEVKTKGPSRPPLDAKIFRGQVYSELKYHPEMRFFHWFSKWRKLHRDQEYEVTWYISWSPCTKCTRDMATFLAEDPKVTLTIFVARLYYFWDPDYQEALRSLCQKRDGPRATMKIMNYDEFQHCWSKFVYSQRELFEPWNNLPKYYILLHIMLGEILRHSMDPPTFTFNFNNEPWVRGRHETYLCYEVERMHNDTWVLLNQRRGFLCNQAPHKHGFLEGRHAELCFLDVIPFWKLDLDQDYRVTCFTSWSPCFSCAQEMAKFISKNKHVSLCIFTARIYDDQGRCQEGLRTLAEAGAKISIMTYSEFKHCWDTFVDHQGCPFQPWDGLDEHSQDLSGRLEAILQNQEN
UniProt Q9HC16, whole entry W127A: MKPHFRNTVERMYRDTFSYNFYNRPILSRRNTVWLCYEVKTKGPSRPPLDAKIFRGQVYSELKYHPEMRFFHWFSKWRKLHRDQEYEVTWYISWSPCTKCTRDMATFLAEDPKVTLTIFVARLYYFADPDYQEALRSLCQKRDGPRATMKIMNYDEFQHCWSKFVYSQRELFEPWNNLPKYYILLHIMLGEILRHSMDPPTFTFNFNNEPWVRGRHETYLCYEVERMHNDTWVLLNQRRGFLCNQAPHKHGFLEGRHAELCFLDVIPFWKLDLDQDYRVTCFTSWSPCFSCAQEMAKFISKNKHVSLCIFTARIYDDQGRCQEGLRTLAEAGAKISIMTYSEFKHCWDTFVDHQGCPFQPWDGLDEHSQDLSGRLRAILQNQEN
UniProt Q9HC16, whole entry W127A/R213E/R215E: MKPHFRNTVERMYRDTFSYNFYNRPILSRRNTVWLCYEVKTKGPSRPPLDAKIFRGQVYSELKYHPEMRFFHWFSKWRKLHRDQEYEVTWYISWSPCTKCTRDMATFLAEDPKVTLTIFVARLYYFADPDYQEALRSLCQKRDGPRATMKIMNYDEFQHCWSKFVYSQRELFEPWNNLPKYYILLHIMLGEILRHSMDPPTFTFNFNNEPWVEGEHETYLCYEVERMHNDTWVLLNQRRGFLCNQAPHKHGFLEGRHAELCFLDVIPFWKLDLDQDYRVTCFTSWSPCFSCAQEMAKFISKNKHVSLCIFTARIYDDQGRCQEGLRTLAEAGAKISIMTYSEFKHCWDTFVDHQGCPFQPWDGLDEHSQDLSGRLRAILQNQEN
UniProt Q9HC16, whole entry W127A/R313E/R320E: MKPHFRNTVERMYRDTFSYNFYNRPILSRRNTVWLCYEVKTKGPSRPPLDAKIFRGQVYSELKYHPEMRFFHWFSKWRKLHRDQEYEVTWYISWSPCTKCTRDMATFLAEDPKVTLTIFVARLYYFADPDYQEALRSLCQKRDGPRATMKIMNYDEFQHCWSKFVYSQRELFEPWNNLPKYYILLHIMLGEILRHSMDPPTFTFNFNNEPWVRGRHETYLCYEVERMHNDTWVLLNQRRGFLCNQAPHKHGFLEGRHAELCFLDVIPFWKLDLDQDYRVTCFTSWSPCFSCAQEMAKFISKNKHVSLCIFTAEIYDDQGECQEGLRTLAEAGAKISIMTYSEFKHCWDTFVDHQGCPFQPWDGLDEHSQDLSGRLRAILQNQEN
UniProt Q9HC16, whole entry W127A/R374E/R376E: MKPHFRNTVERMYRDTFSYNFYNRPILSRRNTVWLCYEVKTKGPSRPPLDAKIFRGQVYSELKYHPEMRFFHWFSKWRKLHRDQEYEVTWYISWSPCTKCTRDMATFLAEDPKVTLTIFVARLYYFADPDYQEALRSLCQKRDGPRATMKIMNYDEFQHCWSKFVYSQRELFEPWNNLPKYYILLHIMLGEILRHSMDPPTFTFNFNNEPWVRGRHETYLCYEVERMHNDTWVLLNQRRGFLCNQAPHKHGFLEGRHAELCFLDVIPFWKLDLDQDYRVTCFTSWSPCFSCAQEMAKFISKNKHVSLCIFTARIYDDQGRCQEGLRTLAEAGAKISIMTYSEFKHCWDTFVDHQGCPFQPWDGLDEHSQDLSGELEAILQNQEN
UniProt Q9HC16, whole entry W285A: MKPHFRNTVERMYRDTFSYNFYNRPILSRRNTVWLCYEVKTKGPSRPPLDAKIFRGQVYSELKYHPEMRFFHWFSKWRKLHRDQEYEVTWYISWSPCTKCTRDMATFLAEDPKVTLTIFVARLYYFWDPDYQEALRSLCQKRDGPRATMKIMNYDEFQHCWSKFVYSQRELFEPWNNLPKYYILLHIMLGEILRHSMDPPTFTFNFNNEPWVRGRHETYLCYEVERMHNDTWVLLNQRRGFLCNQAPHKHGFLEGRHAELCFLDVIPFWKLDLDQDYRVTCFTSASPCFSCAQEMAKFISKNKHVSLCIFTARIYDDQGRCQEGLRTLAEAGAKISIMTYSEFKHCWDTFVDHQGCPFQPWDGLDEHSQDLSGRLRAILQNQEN
UniProt Q9HC16, whole entry W94L: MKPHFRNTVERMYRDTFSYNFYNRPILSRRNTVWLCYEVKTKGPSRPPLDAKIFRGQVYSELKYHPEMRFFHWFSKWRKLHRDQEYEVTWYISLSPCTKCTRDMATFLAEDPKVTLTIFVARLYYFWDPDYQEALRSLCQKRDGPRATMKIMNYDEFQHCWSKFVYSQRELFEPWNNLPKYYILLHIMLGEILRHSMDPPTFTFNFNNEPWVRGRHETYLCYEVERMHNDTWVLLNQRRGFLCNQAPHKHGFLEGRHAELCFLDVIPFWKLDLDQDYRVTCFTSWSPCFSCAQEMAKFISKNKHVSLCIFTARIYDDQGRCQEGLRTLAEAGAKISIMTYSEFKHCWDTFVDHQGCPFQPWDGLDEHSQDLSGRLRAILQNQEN
UniProt Q9HC16, whole entry W94L/R213E/R215E: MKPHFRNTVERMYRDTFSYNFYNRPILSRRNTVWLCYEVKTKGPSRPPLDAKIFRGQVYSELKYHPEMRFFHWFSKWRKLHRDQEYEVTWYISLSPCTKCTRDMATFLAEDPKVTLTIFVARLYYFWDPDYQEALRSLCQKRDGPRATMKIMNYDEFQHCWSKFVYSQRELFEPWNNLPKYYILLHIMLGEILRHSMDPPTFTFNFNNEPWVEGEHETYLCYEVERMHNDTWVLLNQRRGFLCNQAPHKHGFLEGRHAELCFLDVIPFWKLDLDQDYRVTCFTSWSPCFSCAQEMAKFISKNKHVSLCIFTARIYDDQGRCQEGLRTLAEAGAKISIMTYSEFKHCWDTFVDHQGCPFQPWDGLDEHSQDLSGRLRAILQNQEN
UniProt Q9HC16, whole entry W94L/R313E/R320E: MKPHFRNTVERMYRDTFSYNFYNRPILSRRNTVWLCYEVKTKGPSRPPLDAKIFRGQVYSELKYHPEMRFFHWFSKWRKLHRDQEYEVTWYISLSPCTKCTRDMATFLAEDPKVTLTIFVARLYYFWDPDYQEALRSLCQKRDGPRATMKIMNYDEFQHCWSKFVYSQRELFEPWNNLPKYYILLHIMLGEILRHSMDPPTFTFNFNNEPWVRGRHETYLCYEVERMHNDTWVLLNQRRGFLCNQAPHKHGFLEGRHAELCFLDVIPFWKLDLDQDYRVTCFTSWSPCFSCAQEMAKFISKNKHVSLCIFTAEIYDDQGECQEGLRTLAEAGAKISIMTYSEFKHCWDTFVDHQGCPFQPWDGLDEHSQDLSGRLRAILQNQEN
UniProt Q9HC16, whole entry W94L/R374E/R376E: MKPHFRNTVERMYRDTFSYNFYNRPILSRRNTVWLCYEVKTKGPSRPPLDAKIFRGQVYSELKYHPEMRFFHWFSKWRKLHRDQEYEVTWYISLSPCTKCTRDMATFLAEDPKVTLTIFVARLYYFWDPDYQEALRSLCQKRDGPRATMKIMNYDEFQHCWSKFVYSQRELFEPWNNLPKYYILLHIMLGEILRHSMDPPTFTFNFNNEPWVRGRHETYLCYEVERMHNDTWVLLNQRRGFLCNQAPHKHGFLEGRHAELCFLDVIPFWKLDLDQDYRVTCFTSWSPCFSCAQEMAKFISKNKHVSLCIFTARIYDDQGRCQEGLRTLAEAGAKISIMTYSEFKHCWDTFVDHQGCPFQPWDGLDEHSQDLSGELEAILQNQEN

Columns and labels:
Test in all cases: EMSA
[1] = molecular target: A3G E254R (human) (UniProt Q9HC16); conditions: EMSA: 10 mM Tris-HCl pH 7.5, 50 mM NaCl, 0.5% NP-40, 4% glycerol, 1 mM MgCl2, 0.5 mM EDTA, 1 mM DTT, 20 min room temperature, 4 pmol oligo in 20 uL, gel at 4 C; recombinant protein; residues 1-384; protein details: C-terminal Strep; label: 5' Alexa488; single-stranded DNA
[2] = molecular target: A3G R213E (human) (UniProt Q9HC16); conditions: EMSA: 10 mM Tris-HCl pH 7.5, 50 mM NaCl, 0.5% NP-40, 4% glycerol, 1 mM MgCl2, 0.5 mM EDTA, 1 mM DTT, 20 min room temperature, 4 pmol oligo in 20 uL, gel at 4 C; recombinant protein; residues 1-384; protein details: C-terminal Strep; label: 5' Alexa488; single-stranded DNA
[3] = molecular target: A3G R320E (human) (UniProt Q9HC16); conditions: EMSA: 10 mM Tris-HCl pH 7.5, 50 mM NaCl, 0.5% NP-40, 4% glycerol, 1 mM MgCl2, 0.5 mM EDTA, 1 mM DTT, 20 min room temperature, 4 pmol oligo in 20 uL, gel at 4 C; recombinant protein; residues 1-384; protein details: C-terminal Strep; label: 5' Alexa488; single-stranded DNA
[4] = molecular target: A3G R374E (human) (UniProt Q9HC16); conditions: EMSA: 10 mM Tris-HCl pH 7.5, 50 mM NaCl, 0.5% NP-40, 4% glycerol, 1 mM MgCl2, 0.5 mM EDTA, 1 mM DTT, 20 min room temperature, 4 pmol oligo in 20 uL, gel at 4 C; recombinant protein; residues 1-384; protein details: C-terminal Strep; label: 5' Alexa488; single-stranded DNA
[5] = molecular target: A3G R376E (human) (UniProt Q9HC16); conditions: EMSA: 10 mM Tris-HCl pH 7.5, 50 mM NaCl, 0.5% NP-40, 4% glycerol, 1 mM MgCl2, 0.5 mM EDTA, 1 mM DTT, 20 min room temperature, 4 pmol oligo in 20 uL, gel at 4 C; recombinant protein; residues 1-384; protein details: C-terminal Strep; label: 5' Alexa488; single-stranded DNA
[6] = molecular target: A3G W127A (human) (UniProt Q9HC16); conditions: EMSA: 10 mM Tris-HCl pH 7.5, 50 mM NaCl, 0.5% NP-40, 4% glycerol, 1 mM MgCl2, 0.5 mM EDTA, 1 mM DTT, 20 min room temperature, 4 pmol oligo in 20 uL, gel at 4 C; recombinant protein; residues 1-384; protein details: C-terminal Strep; label: 5' Alexa488; single-stranded DNA
[7] = molecular target: A3G W127A/R213E/R215E (human) (UniProt Q9HC16); conditions: EMSA: 10 mM Tris-HCl pH 7.5, 50 mM NaCl, 0.5% NP-40, 4% glycerol, 1 mM MgCl2, 0.5 mM EDTA, 1 mM DTT, 20 min room temperature, 4 pmol oligo in 20 uL, gel at 4 C; recombinant protein; residues 1-384; protein details: C-terminal Strep; label: 5' Alexa488; single-stranded DNA
[8] = molecular target: A3G W127A/R313E/R320E (human) (UniProt Q9HC16); conditions: EMSA: 10 mM Tris-HCl pH 7.5, 50 mM NaCl, 0.5% NP-40, 4% glycerol, 1 mM MgCl2, 0.5 mM EDTA, 1 mM DTT, 20 min room temperature, 4 pmol oligo in 20 uL, gel at 4 C; recombinant protein; residues 1-384; protein details: C-terminal Strep; label: 5' Alexa488; single-stranded DNA
[9] = molecular target: A3G W127A/R374E/R376E (human) (UniProt Q9HC16); conditions: EMSA: 10 mM Tris-HCl pH 7.5, 50 mM NaCl, 0.5% NP-40, 4% glycerol, 1 mM MgCl2, 0.5 mM EDTA, 1 mM DTT, 20 min room temperature, 4 pmol oligo in 20 uL, gel at 4 C; recombinant protein; residues 1-384; protein details: C-terminal Strep; label: 5' Alexa488; single-stranded DNA
[10] = molecular target: A3G W285A (human) (UniProt Q9HC16); conditions: EMSA: 10 mM Tris-HCl pH 7.5, 50 mM NaCl, 0.5% NP-40, 4% glycerol, 1 mM MgCl2, 0.5 mM EDTA, 1 mM DTT, 20 min room temperature, 4 pmol oligo in 20 uL, gel at 4 C; recombinant protein; residues 1-384; label: 5' Alexa488; single-stranded DNA
[11] = molecular target: A3G W94L (human) (UniProt Q9HC16); conditions: EMSA: 10 mM Tris-HCl pH 7.5, 50 mM NaCl, 0.5% NP-40, 4% glycerol, 1 mM MgCl2, 0.5 mM EDTA, 1 mM DTT, 20 min room temperature, 4 pmol oligo in 20 uL, gel at 4 C; recombinant protein; residues 1-384; protein details: C-terminal Strep; label: 5' Alexa488; single-stranded DNA
[12] = molecular target: A3G W94L/R213E/R215E (human) (UniProt Q9HC16); conditions: EMSA: 10 mM Tris-HCl pH 7.5, 50 mM NaCl, 0.5% NP-40, 4% glycerol, 1 mM MgCl2, 0.5 mM EDTA, 1 mM DTT, 20 min room temperature, 4 pmol oligo in 20 uL, gel at 4 C; recombinant protein; residues 1-384; protein details: C-terminal Strep; label: 5' Alexa488; single-stranded DNA
[13] = molecular target: A3G W94L/R313E/R320E (human) (UniProt Q9HC16); conditions: EMSA: 10 mM Tris-HCl pH 7.5, 50 mM NaCl, 0.5% NP-40, 4% glycerol, 1 mM MgCl2, 0.5 mM EDTA, 1 mM DTT, 20 min room temperature, 4 pmol oligo in 20 uL, gel at 4 C; recombinant protein; residues 1-384; protein details: C-terminal Strep; label: 5' Alexa488; single-stranded DNA
[14] = molecular target: A3G W94L/R374E/R376E (human) (UniProt Q9HC16); conditions: EMSA: 10 mM Tris-HCl pH 7.5, 50 mM NaCl, 0.5% NP-40, 4% glycerol, 1 mM MgCl2, 0.5 mM EDTA, 1 mM DTT, 20 min room temperature, 4 pmol oligo in 20 uL, gel at 4 C; recombinant protein; residues 1-384; protein details: C-terminal Strep; label: 5' Alexa488; single-stranded DNA

Measured: binding result

GAAGAGGAAGGGAAGAAAGAGAAAGGGAGACCCAAAGAGGAAAGGTGAGGAGGTTAATTTGTGTAAATA [Alexa488 69-mer]
binds: [1] | [2] | [3] | [4] | [5] | [10]
binds more weakly: all other assays above
